Results are given in words; binding and its absence hold for the method and conditions named. Some entries that bind do so weakly or less than the wild type. Sequences can lack the tags named with a protein.
T1: Atg8 fused to the DNA-binding domain (BD) of Gal4 (Saccharomyces cerevisiae) (UniProt P38182)
T1 sequence: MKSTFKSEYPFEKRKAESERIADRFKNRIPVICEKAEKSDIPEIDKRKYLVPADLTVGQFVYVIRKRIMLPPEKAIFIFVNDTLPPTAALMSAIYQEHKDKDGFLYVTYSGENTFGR


What follows are binders tested against T1, Atg8 fused to the DNA-binding domain (BD) of Gal4 (Saccharomyces cerevisiae) (assay: two-hybrid; Gal4 AD-Atg4 variants (pGAD-C1) and Gal4 BD-Atg8 (pGBDU-C1) in strain PJ69-4A; growth on SMD lacking leucine, uracil and adenine (test plate)).

Row | binding | Binder
1 | binds | Atg4 fused to the activation domain (AD) of Gal4 (enzyme, UniProt P53867 1-494) MQRWLQLWKMDLVQKVSHGVFEGSSEEPAALMNHDYIVLGEVYPERDEESGAEQCEQDCRYRGEAVSDGFLSSLFGREISSYTKEFLLDVQSRVNFTYRTRFVPIARAPDGPSPLSLNLLVRTNPISTIEDYIANPDCFNTDIGWGCMIRTGQSLLGNALQILHLGRDFRVNGNESLERESKFVNWFNDTPEAPFSLHNFVSAGTELSDKRPGEWFGPAATARSIQSLIYGFPECGIDDCIVSVSSGDIYENEVEKVFAENPNSRILFLLGVKLGINAVNESYRESICGILSSTQSVGIAGGRPSSSLYFFGYQGNEFLHFDPHIPQPAVEDSFVESCHTSKFGKLQLSEMDPSMLIGILIKGEKDWQQWKLEVAESAIINVLAKRMDDFDVSCSMDDVESVSSNSMKKDASNNENLGVLEGDYVDIGAIFPHTTNTEDVDEYDCFQDIHCKKQKIVVMGNTHTVNANLTDYEVEGVLVEKETVGIHSPIDEKC
2 | binds | Protease-dead Atg4 (Atg4^PD, C147S) fused to the activation domain (AD) of Gal4 (enzyme, UniProt P53867 1-494) MQRWLQLWKMDLVQKVSHGVFEGSSEEPAALMNHDYIVLGEVYPERDEESGAEQCEQDCRYRGEAVSDGFLSSLFGREISSYTKEFLLDVQSRVNFTYRTRFVPIARAPDGPSPLSLNLLVRTNPISTIEDYIANPDCFNTDIGWGSMIRTGQSLLGNALQILHLGRDFRVNGNESLERESKFVNWFNDTPEAPFSLHNFVSAGTELSDKRPGEWFGPAATARSIQSLIYGFPECGIDDCIVSVSSGDIYENEVEKVFAENPNSRILFLLGVKLGINAVNESYRESICGILSSTQSVGIAGGRPSSSLYFFGYQGNEFLHFDPHIPQPAVEDSFVESCHTSKFGKLQLSEMDPSMLIGILIKGEKDWQQWKLEVAESAIINVLAKRMDDFDVSCSMDDVESVSSNSMKKDASNNENLGVLEGDYVDIGAIFPHTTNTEDVDEYDCFQDIHCKKQKIVVMGNTHTVNANLTDYEVEGVLVEKETVGIHSPIDEKC
3 | no binding | Atg4^S307D fused to the activation domain (AD) of Gal4 (enzyme, UniProt P53867 1-494) MQRWLQLWKMDLVQKVSHGVFEGSSEEPAALMNHDYIVLGEVYPERDEESGAEQCEQDCRYRGEAVSDGFLSSLFGREISSYTKEFLLDVQSRVNFTYRTRFVPIARAPDGPSPLSLNLLVRTNPISTIEDYIANPDCFNTDIGWGCMIRTGQSLLGNALQILHLGRDFRVNGNESLERESKFVNWFNDTPEAPFSLHNFVSAGTELSDKRPGEWFGPAATARSIQSLIYGFPECGIDDCIVSVSSGDIYENEVEKVFAENPNSRILFLLGVKLGINAVNESYRESICGILSSTQSVGIAGGRPSSDLYFFGYQGNEFLHFDPHIPQPAVEDSFVESCHTSKFGKLQLSEMDPSMLIGILIKGEKDWQQWKLEVAESAIINVLAKRMDDFDVSCSMDDVESVSSNSMKKDASNNENLGVLEGDYVDIGAIFPHTTNTEDVDEYDCFQDIHCKKQKIVVMGNTHTVNANLTDYEVEGVLVEKETVGIHSPIDEKC
4 | binds | Atg4^S307A fused to the activation domain (AD) of Gal4 (enzyme, UniProt P53867 1-494) MQRWLQLWKMDLVQKVSHGVFEGSSEEPAALMNHDYIVLGEVYPERDEESGAEQCEQDCRYRGEAVSDGFLSSLFGREISSYTKEFLLDVQSRVNFTYRTRFVPIARAPDGPSPLSLNLLVRTNPISTIEDYIANPDCFNTDIGWGCMIRTGQSLLGNALQILHLGRDFRVNGNESLERESKFVNWFNDTPEAPFSLHNFVSAGTELSDKRPGEWFGPAATARSIQSLIYGFPECGIDDCIVSVSSGDIYENEVEKVFAENPNSRILFLLGVKLGINAVNESYRESICGILSSTQSVGIAGGRPSSALYFFGYQGNEFLHFDPHIPQPAVEDSFVESCHTSKFGKLQLSEMDPSMLIGILIKGEKDWQQWKLEVAESAIINVLAKRMDDFDVSCSMDDVESVSSNSMKKDASNNENLGVLEGDYVDIGAIFPHTTNTEDVDEYDCFQDIHCKKQKIVVMGNTHTVNANLTDYEVEGVLVEKETVGIHSPIDEKC
